Measured values: publication PMC3901689, “Leptin-Induced Endothelium-Dependent Vasorelaxation of Peripheral Arteries in Lean and Obese Rats: Role of Nitric Oxide and Hydrogen Sulfide” (PLoS ONE, 2014)
These are yes or no findings as the source states them, for the method shown. Sequences can lack the tags named with a protein.

Biological target: super active rat leptin antagonist (D23L/L39A/D40A/F41A mutant), non-pegylated (rat) (UniProt P50596)
Test: SEC; analytical Superdex 75 column pre-equilibrated with TN buffer, pH 8, native conditions; both purified

binding: no binding
B1: super active rat leptin antagonist (D23L/L39A/D40A/F41A mutant), non-pegylated (ligand)
chain: AVPIHKVQDDTKTLIKTIVTRINLISHTQSVSARQRVTGAAAIPGLHPILSLSKMDQTLAVYQQILTSLPSQNVLQIAHDLENLRDLLHLLAFSKSCSLPQTRGLQKPESLDGVLEASLYSTEVVALSRLQGSLQDILQQLDLSPEC
notes: extra Ala left at the N-terminus from an extra Met-Ala (Met is cleaved by the bacteria); leptin, rat; about 16 kDa by SDS-PAGE; also called SRLA
